Earlier results in patent US20080241249A1 (priority 2007, published 2008).
At least one compound was matched to its structure with a doubt left.

Conditions: aqueous pKa

Row | SMILES | pKa
1 | O=S(=O)(O)F [fluorosulfonic acid] | < —10
2 | [O-][Cl+3]([O-])([O-])O [perchloric acid] | —5
